These are yes or no findings as the source states them, for the method shown. Binding can be weak; no strength is given.
The binders below were run against recombinant mouse TIGIT IgV domain (mouse) (assay: phage display panning on biotinylated mouse TIGIT IgV domain).

| Binder | binding |
| --- | --- |
| 1G3 scFv phage clone (scFv, V domains shown) VH: DIQLVQSGGGLVKPGGSLRLSCAASGYTFTNYWIGWVRQTPGKGLEWVGDIYPGSSFTNSNEKFKGRFTISADKSKNTAYLQMNSLRAEDTAVYYCARDMVGYWYFDVWGQGTLVTVSS VL: DIVLTQSPATLSASLGERATLSCSASSSVSYIHWYQQKPGQAPKLLIYTTSNLASGVPSRFSGSGSGTDFTLTISSLEAEDFATYYCHQWSRYPTFGGGTKLEIK | binds |
| 2F1 scFv phage clone (scFv, V domains shown) VH: DIQLVQSGGGLVKPGGSLRLSCAASGYTFTNYWIGWVRQTPGKGLEWVGDIYPGSSFTNSNEKFKGRFTISADKSKNTAYLQMNSLRAEDTAVYYCARVIVGYWYFDVWGQGTLVTVSS VL: DIVLTQSPATLSASLGERATLSCSASSSVSYIHWYQQKPGQAPKLLIYTTSNLASGVPSRFSGSGSGTDFTLTISSLEAEDFATYYCHQWSRYPTFGGGTKLEIK | binds |
| 3H2 scFv phage clone (scFv, V domains shown) VH: DIQLVQSGGGLVKPGGSLRLSCAASGYTFTNYWIGWVRQTPGKGLEWVGDIYPGSSFTNSNEKFKGRFTISADKSKNTAYLQMNSLRAEDTAVYYCARIRLGYWYFDVWGQGTLVTVSS VL: DIVLTQSPATLSASLGERATLSCSASSSVSYIHWYQQKPGQAPKLLIYTTSNLASGVPSRFSGSGSGTDFTLTISSLEAEDFATYYCHQWSRYPTFGGGTKLEIK | binds |

From patent US20230416362A1
